From the supplement of paper PMC10849652
This is one part of the list.

Amino acid sequences for entries named in this document (tags omitted). A change or cut given only in a name is not applied to a line headed by its entry.
UniProt P50552: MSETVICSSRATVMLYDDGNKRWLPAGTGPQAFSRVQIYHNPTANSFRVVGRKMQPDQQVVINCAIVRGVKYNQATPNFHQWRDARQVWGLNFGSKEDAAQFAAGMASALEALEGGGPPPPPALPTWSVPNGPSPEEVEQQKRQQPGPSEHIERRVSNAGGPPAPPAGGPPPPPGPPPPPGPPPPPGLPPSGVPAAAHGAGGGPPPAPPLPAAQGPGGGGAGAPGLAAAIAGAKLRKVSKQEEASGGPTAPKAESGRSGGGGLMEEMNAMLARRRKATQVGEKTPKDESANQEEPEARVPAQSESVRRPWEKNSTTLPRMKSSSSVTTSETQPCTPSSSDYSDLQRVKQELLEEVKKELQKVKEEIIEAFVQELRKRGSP
UniProt Q14694, whole entry, looked up: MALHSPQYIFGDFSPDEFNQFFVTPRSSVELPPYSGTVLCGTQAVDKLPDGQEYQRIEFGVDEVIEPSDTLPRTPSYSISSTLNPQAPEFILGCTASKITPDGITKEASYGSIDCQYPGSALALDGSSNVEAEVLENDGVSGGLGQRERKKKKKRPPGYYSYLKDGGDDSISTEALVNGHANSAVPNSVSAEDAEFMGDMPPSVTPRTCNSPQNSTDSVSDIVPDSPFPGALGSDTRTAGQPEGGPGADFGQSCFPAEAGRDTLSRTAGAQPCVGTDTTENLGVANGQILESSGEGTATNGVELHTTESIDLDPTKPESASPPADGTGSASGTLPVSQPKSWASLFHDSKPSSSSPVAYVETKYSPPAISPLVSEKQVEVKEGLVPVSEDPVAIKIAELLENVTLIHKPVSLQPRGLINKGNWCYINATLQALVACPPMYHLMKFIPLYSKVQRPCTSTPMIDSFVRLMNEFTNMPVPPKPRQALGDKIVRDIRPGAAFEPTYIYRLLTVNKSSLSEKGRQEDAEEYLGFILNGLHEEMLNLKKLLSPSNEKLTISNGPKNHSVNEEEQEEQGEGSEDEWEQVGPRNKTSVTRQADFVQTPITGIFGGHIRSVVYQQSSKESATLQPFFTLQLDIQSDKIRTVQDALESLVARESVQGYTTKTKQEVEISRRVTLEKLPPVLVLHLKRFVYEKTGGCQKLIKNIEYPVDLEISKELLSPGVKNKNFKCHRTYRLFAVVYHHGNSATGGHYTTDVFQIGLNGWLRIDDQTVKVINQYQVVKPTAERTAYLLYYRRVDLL
UniProt P51809, whole entry, looked up: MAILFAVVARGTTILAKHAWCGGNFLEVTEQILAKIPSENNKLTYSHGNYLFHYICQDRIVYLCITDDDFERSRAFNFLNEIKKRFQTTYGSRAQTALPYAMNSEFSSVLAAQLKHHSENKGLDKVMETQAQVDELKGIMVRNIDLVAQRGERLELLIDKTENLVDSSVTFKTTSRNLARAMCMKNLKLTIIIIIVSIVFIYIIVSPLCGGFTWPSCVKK
UniProt Q9NUQ7: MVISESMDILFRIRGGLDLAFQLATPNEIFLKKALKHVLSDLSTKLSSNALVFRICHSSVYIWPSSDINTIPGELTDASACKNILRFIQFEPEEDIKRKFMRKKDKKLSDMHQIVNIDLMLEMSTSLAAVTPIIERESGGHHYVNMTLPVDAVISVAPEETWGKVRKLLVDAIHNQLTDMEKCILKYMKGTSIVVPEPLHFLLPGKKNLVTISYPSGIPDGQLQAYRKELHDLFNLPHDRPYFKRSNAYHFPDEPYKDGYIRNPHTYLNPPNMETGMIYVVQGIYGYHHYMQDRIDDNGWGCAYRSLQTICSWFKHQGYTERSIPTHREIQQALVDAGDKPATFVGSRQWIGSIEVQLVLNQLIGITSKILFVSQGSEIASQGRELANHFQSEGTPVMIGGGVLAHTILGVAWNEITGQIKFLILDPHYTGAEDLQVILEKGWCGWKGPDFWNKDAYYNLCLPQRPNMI
UniProt Q96S82: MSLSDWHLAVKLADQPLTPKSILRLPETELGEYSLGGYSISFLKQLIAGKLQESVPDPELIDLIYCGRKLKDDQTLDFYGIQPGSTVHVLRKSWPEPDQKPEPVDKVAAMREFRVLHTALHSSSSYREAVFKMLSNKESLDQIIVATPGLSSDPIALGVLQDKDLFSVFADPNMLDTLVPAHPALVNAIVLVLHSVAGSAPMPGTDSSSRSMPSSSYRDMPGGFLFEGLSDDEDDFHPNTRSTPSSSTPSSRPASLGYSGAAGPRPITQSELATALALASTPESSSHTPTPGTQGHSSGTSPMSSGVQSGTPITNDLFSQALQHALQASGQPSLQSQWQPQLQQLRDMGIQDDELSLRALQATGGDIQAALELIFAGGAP
UniProt Q04323: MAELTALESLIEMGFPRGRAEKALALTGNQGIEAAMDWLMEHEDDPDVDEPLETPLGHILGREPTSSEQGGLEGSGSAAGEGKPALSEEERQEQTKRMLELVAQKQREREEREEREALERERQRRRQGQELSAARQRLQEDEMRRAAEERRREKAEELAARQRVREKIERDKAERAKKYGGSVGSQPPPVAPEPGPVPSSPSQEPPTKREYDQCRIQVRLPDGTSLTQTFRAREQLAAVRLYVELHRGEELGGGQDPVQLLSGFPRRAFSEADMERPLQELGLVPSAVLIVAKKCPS
UniProt Q96K76: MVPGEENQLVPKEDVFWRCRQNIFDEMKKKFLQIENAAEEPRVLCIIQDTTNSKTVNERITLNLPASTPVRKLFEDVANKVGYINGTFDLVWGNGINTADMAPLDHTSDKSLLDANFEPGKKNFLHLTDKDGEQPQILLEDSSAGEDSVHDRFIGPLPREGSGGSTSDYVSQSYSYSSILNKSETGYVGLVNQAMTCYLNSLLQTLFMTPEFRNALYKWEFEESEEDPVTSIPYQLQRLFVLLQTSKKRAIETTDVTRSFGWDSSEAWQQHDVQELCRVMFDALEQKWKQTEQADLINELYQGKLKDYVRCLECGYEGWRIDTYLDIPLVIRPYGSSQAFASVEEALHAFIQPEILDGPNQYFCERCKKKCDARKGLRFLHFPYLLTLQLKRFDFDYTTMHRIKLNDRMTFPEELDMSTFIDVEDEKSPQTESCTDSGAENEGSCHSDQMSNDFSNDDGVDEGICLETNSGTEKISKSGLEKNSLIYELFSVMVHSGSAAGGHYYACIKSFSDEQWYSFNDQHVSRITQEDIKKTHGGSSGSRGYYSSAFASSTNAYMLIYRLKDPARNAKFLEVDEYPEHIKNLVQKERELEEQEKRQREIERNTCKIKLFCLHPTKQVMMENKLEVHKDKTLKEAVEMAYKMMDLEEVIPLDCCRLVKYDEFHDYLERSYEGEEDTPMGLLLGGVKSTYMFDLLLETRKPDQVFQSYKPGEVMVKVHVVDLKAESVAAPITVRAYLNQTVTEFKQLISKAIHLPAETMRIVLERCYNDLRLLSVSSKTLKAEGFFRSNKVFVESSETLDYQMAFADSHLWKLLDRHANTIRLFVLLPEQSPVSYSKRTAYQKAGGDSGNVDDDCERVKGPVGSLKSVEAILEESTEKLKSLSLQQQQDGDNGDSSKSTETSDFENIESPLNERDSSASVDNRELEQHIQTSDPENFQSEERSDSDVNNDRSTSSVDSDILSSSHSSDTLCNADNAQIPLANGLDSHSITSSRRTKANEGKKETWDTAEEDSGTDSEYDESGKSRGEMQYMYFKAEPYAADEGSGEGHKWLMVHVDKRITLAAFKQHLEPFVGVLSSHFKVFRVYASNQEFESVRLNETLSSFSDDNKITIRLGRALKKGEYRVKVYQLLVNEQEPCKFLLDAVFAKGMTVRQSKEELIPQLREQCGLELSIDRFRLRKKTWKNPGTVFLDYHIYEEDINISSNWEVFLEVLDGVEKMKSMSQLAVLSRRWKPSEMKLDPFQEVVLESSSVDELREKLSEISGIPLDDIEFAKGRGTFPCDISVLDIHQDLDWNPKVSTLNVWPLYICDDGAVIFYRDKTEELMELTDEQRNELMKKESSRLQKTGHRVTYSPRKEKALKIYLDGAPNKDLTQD
UniProt Q8N806: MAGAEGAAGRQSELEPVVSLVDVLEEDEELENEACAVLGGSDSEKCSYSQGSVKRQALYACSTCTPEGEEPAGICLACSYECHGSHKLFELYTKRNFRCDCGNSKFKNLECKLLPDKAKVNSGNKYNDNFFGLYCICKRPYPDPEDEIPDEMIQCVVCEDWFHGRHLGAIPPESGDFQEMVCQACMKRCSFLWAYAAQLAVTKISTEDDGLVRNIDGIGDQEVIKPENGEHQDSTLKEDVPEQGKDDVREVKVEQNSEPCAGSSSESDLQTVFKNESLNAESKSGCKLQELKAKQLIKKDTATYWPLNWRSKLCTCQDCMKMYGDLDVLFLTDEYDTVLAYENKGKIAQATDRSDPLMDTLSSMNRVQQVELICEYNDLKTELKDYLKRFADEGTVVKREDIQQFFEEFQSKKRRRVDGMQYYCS
UniProt Q9BZL1: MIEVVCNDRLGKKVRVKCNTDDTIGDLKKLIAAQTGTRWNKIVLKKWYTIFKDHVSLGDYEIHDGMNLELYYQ
UniProt P07919: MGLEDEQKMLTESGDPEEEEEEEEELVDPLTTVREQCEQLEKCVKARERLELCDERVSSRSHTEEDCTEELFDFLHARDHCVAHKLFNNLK
UniProt O94966: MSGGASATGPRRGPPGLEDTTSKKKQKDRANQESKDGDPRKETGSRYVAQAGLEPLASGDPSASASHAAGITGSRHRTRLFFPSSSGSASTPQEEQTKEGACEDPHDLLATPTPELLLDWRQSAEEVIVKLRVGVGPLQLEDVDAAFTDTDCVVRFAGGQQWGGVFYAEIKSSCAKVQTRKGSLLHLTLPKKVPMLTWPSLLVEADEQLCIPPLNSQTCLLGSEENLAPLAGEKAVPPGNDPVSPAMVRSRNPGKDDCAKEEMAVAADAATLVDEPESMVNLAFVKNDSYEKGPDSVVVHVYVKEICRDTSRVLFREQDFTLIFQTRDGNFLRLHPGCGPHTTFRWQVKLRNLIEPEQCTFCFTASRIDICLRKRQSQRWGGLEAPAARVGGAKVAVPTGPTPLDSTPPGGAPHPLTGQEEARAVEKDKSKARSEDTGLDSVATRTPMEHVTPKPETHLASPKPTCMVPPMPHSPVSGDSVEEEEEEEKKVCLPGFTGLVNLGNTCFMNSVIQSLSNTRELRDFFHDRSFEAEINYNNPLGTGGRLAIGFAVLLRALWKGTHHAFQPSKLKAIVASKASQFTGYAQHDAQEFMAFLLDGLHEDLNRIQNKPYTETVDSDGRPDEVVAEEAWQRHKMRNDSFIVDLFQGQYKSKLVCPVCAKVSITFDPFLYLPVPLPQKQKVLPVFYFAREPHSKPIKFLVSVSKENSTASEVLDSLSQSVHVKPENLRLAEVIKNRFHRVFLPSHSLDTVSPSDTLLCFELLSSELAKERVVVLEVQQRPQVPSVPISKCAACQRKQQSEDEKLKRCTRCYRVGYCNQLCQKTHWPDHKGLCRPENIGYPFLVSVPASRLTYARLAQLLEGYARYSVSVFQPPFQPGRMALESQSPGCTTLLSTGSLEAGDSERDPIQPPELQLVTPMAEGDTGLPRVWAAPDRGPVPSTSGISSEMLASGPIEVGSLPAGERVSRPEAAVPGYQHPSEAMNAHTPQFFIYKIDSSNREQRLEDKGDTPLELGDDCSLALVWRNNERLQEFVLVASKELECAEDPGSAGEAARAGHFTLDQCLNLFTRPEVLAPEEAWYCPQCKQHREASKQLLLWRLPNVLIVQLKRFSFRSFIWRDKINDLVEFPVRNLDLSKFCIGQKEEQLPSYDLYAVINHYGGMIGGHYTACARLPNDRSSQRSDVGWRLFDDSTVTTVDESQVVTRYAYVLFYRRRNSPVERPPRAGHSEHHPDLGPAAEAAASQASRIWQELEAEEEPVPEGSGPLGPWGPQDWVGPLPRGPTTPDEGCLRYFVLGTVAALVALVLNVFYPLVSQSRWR
UniProt Q8WVY7: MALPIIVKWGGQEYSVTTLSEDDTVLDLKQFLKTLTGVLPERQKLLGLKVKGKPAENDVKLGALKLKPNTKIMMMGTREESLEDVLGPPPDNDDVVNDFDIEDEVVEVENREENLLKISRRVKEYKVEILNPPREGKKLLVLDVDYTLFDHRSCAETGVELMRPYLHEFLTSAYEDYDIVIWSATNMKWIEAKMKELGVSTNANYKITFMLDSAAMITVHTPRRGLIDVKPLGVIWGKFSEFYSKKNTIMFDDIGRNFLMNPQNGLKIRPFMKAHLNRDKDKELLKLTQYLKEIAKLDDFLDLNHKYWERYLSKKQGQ
UniProt Q9HA47: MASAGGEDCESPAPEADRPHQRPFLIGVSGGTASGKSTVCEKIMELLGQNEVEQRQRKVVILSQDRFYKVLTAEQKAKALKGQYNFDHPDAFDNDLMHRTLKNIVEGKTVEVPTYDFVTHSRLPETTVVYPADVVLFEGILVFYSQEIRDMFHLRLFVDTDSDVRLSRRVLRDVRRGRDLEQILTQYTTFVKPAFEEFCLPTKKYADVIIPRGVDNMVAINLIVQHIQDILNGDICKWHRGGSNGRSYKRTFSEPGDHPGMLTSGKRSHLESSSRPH
UniProt Q9UBK9, whole entry, looked up: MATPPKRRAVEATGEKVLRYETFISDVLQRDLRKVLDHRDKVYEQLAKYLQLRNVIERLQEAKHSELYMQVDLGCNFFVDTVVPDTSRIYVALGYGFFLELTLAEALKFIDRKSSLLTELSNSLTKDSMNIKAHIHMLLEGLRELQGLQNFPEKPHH

Key:
Experiment in all cases: log2 fold change, soluble protein after heating vs DMSO (PISA); higher = thermal stabilisation; K562 cells, 10 uM, 30 min; active = over 0.2 and 3.5 SD of the protein, either way, in both replicates (recomputed)
[1] = compound: CC1=C(C=C(C=C1)NC(=O)C2=CC(=CC=C2)C(C)(C)C#N)NC3=CC4=C(C=C3)N=CN(C4=O)C
Procedure, shortened: (§1)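 K562 cells at 2×10^6 cells/mL were given 10 μM compound for 30 min. Aliquots then went through 3 min of heating across 48°C-58°C, were pooled, and were extracted in PBS with 0.5% NP-40 at 4°C, and the supernatant after 21,000xg for 90 min was quantified by TMTpro 16plex LC-MS/MS with channel sums equalised. Thermal stability relative to control samples, from duplicates, is given as log2 fold change.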

[2] = compound: CC1=C(C=C(C=C1)NC(=O)C2=CC(=CC=C2)N(C)C)NC(=O)C3=CC=C(C=C3)O
Procedure, shortened: as §1

[3] = compound: CC1=CC=C(C=C1)SC2=C3C=C(SC3=CN=C2)C(=O)N
Procedure, shortened: as §1

[4] = compound: CC1=NC(=CC=C1)C2=C(N=C(N2)C(C)(C)C)C3=CC4=NC=CN=C4C=C3
Procedure, shortened: as §1

[5] = compound: CCCCN(Cc1ccc(C(=O)NO)cc1)C(=O)Nc1ccccc1 [Nexturastat A]
Procedure, shortened: as §1

[6] = compound: CCCS(=O)(=O)Nc1ccc(F)c(C(=O)c2c[nH]c3ncc(-c4ccc(Cl)cc4)cc23)c1F [vemurafenib]
Procedure, shortened: as §1

[7] = compound: CCCS(=O)(=O)Nc1ccc(F)c(C(=O)c2c[nH]c3ncc(Cl)cc23)c1F
Procedure, shortened: as §1

[8] = compound: CCCc1cc(C)[nH]c(=O)c1CNC(=O)c1cc(-c2ccnc(N3CCN(C)CC3)c2)cc2c1cnn2C(C)C
Procedure, shortened: as §1

[9] = compound: CCN(CC)Cc1ccc2cc(COC(=O)Nc3ccc(C(=O)NO)cc3)ccc2c1 [givinostat]
Procedure, shortened: as §1

[10] = compound: CCN(CCCOc1ccc2c(Nc3cc(CC(=O)Nc4cccc(F)c4)[nH]n3)ncnc2c1)CCOP(=O)(O)O [barasertib]
Procedure, shortened: as §1

Measured: log2 fold change

UBE4A isoform 2 (UniProt Q14139)
inactive: [1] -0.064 | [2] -0.058 | [3] -0.029 | [4] 0.01 | [5] 0.061 | [6] 0.048 | [7] 0.097 | [8] 0.021 | [9] 0.073 | [10] 0.065

VASP (UniProt P50552)
inactive: [1] -0.083 | [2] -0.044 | [3] 0.012 | [4] -0.035 | [5] 0.123 | [6] 0.058 | [7] 0.017 | [8] 0.062 | [9] 0.179 | [10] 0.115

UGP2 (UniProt Q16851)
inactive: [1] -0.003 | [2] 0.007 | [3] 0.019 | [4] 0.023 | [5] -0.068 | [6] -0.005 | [7] 0.028 | [8] 0.002 | [9] -0.008 | [10] -0.005

UNC45A (UniProt Q9H3U1)
inactive: [1] 0.025 | [2] -0.003 | [3] 0.031 | [4] -0.035 | [5] 0.198 | [6] 0.029 | [7] 0.091 | [8] 0.058 | [9] 0.071 | [10] 0.094

UMPS (UniProt P11172)
inactive: [1] -0.005 | [2] 0.004 | [3] 0.049 | [4] 0.025 | [5] -0.119 | [6] 0.012 | [7] 0.026 | [8] -0.012 | [9] -0.014 | [10] 0.01

USP24 (UniProt Q9UPU5)
inactive: [1] 0.114 | [2] -0.026 | [3] 0 | [4] 0.012 | [5] -0.047 | [6] 0 | [7] 0.052 | [8] -0.042 | [9] 0.011 | [10] -0.053

USP10 isoform 2 (UniProt Q14694)
inactive: [1] 0.036 | [2] 0.046 | [3] -0.03 | [4] 0.006 | [5] 0.106 | [6] 0.029 | [7] 0.033 | [8] 0 | [9] 0.023 | [10] -0.043

Fetched one by one from above, 2 records:
USP24 (UniProt Q9UPU5)
inactive: [1] 0.114 | [2] -0.026 | [3] 0 | [4] 0.012 | [5] -0.047 | [6] 0 | [7] 0.052 | [8] -0.042 | [9] 0.011 | [10] -0.053

UNC45A (UniProt Q9H3U1)
inactive: [1] 0.025 | [2] -0.003 | [3] 0.031 | [4] -0.035 | [5] 0.198 | [6] 0.029 | [7] 0.091 | [8] 0.058 | [9] 0.071 | [10] 0.094

Next part

VAMP7 (UniProt P51809)
inactive: [1] -0.014 | [2] 0.011 | [3] 0.053 | [4] 0.005 | [5] -0.069 | [6] 0.022 | [7] -0.01 | [8] -0.016 | [9] 0.011 | [10] 0.017

UIMC1 (UniProt Q96RL1)
inactive: [1] -0.08 | [2] -0.04 | [3] -0.033 | [4] -0.106 | [5] 0.312 | [6] -0.036 | [7] -0.076 | [8] -0.11 | [9] -0.03 | [10] -0.12

UFSP2 (UniProt Q9NUQ7)
inactive: [1] 0.006 | [2] -0.043 | [3] -0.028 | [4] -0.023 | [5] 0.031 | [6] 0.069 | [7] 0.026 | [8] 0.039 | [9] 0.046 | [10] 0.009

URI1 (UniProt O94763)
inactive: [1] 0.023 | [2] 0.062 | [3] -0.041 | [4] 0.021 | [5] -0.026 | [6] 0.035 | [7] -0.073 | [8] -0.028 | [9] 0.017 | [10] -0.003

UBFD1 (UniProt O14562)
inactive: [1] -0.02 | [2] -0.025 | [3] 0.087 | [4] 0.023 | [5] 0 | [6] 0.022 | [7] 0.004 | [8] -0.039 | [9] -0.001 | [10] 0.011

UFL1 (UniProt O94874)
inactive: [1] -0.009 | [2] -0.089 | [3] 0.011 | [4] 0.048 | [5] 0.091 | [6] 0.083 | [7] 0.089 | [8] 0.043 | [9] 0.08 | [10] 0.031

UQCR10 (UniProt Q9UDW1)
inactive: [1] 0.103 | [2] -0.086 | [3] 0.069 | [4] -0.014 | [5] -0.049 | [6] -0.042 | [7] -0.018 | [8] 0.007 | [9] -0.05 | [10] -0.042

UBL7 (UniProt Q96S82)
inactive: [1] -0.037 | [2] -0.029 | [3] -0.019 | [4] 0.086 | [5] -0.128 | [6] 0.122 | [7] 0.076 | [8] -0.071 | [9] 0.012 | [10] 0.09

UBXN1 (UniProt Q04323)
inactive: [1] -0.001 | [2] -0.048 | [3] -0.019 | [4] 0.028 | [5] -0.034 | [6] 0.026 | [7] -0.001 | [8] -0.042 | [9] 0.047 | [10] -0.009

USP47 (UniProt Q96K76)
inactive: [1] 0.005 | [2] -0.057 | [3] 0.041 | [4] -0.023 | [5] 0.078 | [6] -0.007 | [7] 0.071 | [8] 0.051 | [9] 0.125 | [10] 0.007

USP34 (UniProt Q70CQ2)
inactive: [1] -0.02 | [2] -0.094 | [3] 0.077 | [4] 0 | [5] -0.12 | [6] 0.08 | [7] 0.032 | [8] 0.052 | [9] 0.094 | [10] 0.069

UCHL5 (UniProt Q9Y5K5)
inactive: [1] 0.014 | [2] -0.07 | [3] 0.019 | [4] 0.053 | [5] 0.048 | [6] 0.075 | [7] 0.08 | [8] 0.003 | [9] 0.057 | [10] 0.024

UBR7 (UniProt Q8N806)
inactive: [1] -0.037 | [2] -0.003 | [3] 0 | [4] 0.023 | [5] -0.073 | [6] 0.032 | [7] -0.002 | [8] -0.024 | [9] -0.033 | [10] 0.026

UBL5 (UniProt Q9BZL1)
inactive: [1] -0.072 | [2] 0.017 | [3] -0.005 | [4] -0.042 | [5] -0.027 | [6] 0.052 | [7] 0.006 | [8] -0.015 | [9] -0.043 | [10] 0.003

UQCRFS1 (UniProt P47985)
inactive: [1] 0.04 | [2] -0.012 | [3] 0.007 | [4] 0.027 | [5] -0.105 | [6] 0.006 | [7] -0.041 | [8] 0.174 | [9] -0.017 | [10] -0.017

UPF2 (UniProt Q9HAU5)
inactive: [1] 0.017 | [2] -0.042 | [3] -0.052 | [4] -0.105 | [5] 0.145 | [6] -0.044 | [7] -0.054 | [8] 0.146 | [9] 0.029 | [10] -0.064

UQCRH (UniProt P07919)
inactive: [1] -0.048 | [2] -0.027 | [3] 0.29 | [4] -0.062 | [5] -0.021 | [6] -0.083 | [7] -0.161 | [8] -0.092 | [9] -0.015 | [10] 0.012

USP19 isoform 6 (UniProt O94966)
inactive: [1] 0.026 | [2] -0.009 | [3] -0.002 | [4] -0.011 | [5] -0.05 | [6] 0.061 | [7] 0.014 | [8] 0.032 | [9] 0.044 | [10] -0.008

UBLCP1 (UniProt Q8WVY7)
inactive: [1] -0.011 | [2] -0.078 | [3] -0.03 | [4] 0.03 | [5] 0.025 | [6] 0.076 | [7] 0.093 | [8] -0.006 | [9] 0.122 | [10] 0.057

UCK1 (UniProt Q9HA47)
inactive: [1] 0.038 | [2] -0.108 | [3] 0.026 | [4] 0.003 | [5] -0.05 | [6] -0.05 | [7] 0.013 | [8] 0.152 | [9] -0.067 | [10] -0.006

UXT isoform 2 (UniProt Q9UBK9)
active: [5] 0.904
inactive: [1] 0.008 | [2] 0.003 | [3] 0.039 | [4] -0.074 | [6] -0.023 | [7] -0.013 | [8] 0.041 | [9] 0.211 | [10] 0.022

USP30 (UniProt Q70CQ3)
inactive: [1] 0.217 | [2] -0.074 | [3] 0 | [4] 0.032 | [5] -0.144 | [6] 0.272 | [7] -0.072 | [8] -0.007 | [9] -0.043 | [10] -0.202

UCHL5 isoform 3 (UniProt Q9Y5K5)
inactive: [1] -0.09 | [2] -0.145 | [3] 0.048 | [4] -0.213 | [5] 0.07 | [6] -0.02 | [7] 0.243 | [8] 0.047 | [9] 0.056 | [10] 0.048
